Data: patent CN105384815A
These are yes or no findings as the source states them, for the method shown. Some entries that bind do so weakly or less than the wild type.

Amino acid sequences for entries named in this document (tags omitted). A change or cut given only in a name is not applied to a line headed by its entry.
UniProt Q82635: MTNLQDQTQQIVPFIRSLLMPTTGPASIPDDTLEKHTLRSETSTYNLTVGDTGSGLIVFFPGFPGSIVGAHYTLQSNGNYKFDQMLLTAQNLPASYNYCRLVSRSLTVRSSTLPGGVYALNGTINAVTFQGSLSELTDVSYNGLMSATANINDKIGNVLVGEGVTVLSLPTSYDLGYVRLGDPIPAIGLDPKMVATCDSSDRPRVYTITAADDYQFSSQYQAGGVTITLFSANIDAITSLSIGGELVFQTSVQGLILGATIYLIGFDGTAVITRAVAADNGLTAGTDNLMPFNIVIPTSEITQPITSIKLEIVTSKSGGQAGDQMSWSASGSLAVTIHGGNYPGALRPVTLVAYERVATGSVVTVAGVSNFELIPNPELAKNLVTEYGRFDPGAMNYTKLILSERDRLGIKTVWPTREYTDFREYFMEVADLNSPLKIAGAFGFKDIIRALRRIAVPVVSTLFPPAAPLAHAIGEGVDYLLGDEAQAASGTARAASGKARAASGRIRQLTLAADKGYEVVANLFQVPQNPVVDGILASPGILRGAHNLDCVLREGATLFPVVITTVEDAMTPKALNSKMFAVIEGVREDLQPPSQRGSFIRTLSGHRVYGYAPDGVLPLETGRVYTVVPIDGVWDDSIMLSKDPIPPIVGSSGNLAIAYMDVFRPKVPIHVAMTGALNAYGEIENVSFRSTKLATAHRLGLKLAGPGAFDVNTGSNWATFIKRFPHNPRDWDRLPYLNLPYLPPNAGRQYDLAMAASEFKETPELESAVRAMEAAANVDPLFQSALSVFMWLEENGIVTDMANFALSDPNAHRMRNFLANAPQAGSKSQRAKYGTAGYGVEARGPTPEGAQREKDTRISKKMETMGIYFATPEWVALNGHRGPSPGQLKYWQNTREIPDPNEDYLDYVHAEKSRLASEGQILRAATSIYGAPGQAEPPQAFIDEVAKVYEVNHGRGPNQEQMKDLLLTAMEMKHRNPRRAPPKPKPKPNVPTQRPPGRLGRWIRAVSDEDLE

Target: VP2蛋白 (recombinant, Example 3) (鸡传染性法氏囊病病毒 (IBDV), strain not stated) (UniProt Q82635)
Assay: sandwich ELISA, scFv-GD coated, VP2 40 μg/ml, detection with anti-VP2 polyclonal antibody

B1: scFv-GD抗体 (scFv)
scFv: AVTLDESGGGLQTPGGALSLVCKASGFSISSYSMAWVRQAPGKGLEWVAGIYSSGSSTYYGSAVKGRATISRDNGQSTVRLQLNNLRAEDTGTYYCARGGCSTYGCGGYAGSIDAWGHGTEVIVSSASGGGGSGGGGSGGGGSALTQPSSVSANPGETVKITCSGGGSSYGYSWHQQKSPGSAPVTVIYNNTNRPSNIPSRFSGSKSGSTATLTITGVQADDEAIYFCGSADSSYVGIFGAGTTLTVLG
binding: binds
